{"source": "PubChem BioAssay AID652272 (Drosophila RNAi Screening Center, 2013)", "test": "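Finding fly genes that regulate Hedgehog signal transduction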 (primary screen)", "system": "Drosophila clone 8 (Cl8) cells", "reagents": "long dsRNA against Drosophila genes", "detection": "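Firefly light from a Hedgehog-responsive ptc promoter reporter and Renilla reference light, both read on a plate reader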", "scale": "firefly Hh reporter signal: higher = more ptc reporter light; Renilla reference signal: higher = more Renilla control light", "rule for the call": "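Hit when the z-score averaged over two replicates is under -2 or over +3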", "meaning of the calls": "active = hit: reporter lowered or raised; inactive = not a hit", "note": "In all, the deposit lists about 21,000 reagents; below is a random part of those that have a named target and a result. Of all reagents, 503 (2.4%) got an active call. 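Raw plate light values, not normalised; calls rest on replicate z-scores that were not deposited; hits include reporter decreases as well as increases.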 A number with no mark means an inactive call. Not stated in the record: the amount of reagent, the time to read-out."}
{"predicted target": "ChLD3", "DRSC id": "DRSC02640", "firefly Hh reporter signal, replicate 1": 1.53e5, "firefly Hh reporter signal, replicate 2": 56476, "Renilla reference signal, replicate 1": 3932, "Renilla reference signal, replicate 2": 4906}
{"predicted target": "GstD10", "DRSC id": "DRSC15346", "firefly Hh reporter signal, replicate 1": 65732, "firefly Hh reporter signal, replicate 2": 1.10e5, "Renilla reference signal, replicate 1": 2267, "Renilla reference signal, replicate 2": 2886}
{"predicted target": "TppII", "DRSC id": "DRSC07565", "firefly Hh reporter signal, replicate 1": 1.20e5, "firefly Hh reporter signal, replicate 2": 35952, "Renilla reference signal, replicate 1": 4476, "Renilla reference signal, replicate 2": 1298}
{"predicted target": "promL", "DRSC id": "DRSC08733", "firefly Hh reporter signal, replicate 1": 86182, "firefly Hh reporter signal, replicate 2": 77746, "Renilla reference signal, replicate 1": 3397, "Renilla reference signal, replicate 2": 3275}
{"predicted target": "rad50", "DRSC id": "DRSC04523", "firefly Hh reporter signal, replicate 1": 53521, "firefly Hh reporter signal, replicate 2": 53573, "Renilla reference signal, replicate 1": 2295, "Renilla reference signal, replicate 2": 2112}
{"predicted target": "CG32814", "DRSC id": "DRSC17670", "firefly Hh reporter signal, replicate 1": 5.08e5, "firefly Hh reporter signal, replicate 2": 2.23e5, "Renilla reference signal, replicate 1": 23458, "Renilla reference signal, replicate 2": 4998}
{"predicted target": "hyx", "DRSC id": "DRSC14462", "firefly Hh reporter signal, replicate 1": 1.10e5, "firefly Hh reporter signal, replicate 2": 1.20e5, "Renilla reference signal, replicate 1": 3568, "Renilla reference signal, replicate 2": 3443}
{"predicted target": "CG42544", "DRSC id": "DRSC12451", "firefly Hh reporter signal, replicate 1": 1.42e5, "Renilla reference signal, replicate 1": 3440}
{"predicted target": "CG11279", "DRSC id": "DRSC09837", "firefly Hh reporter signal, replicate 1": 51377, "firefly Hh reporter signal, replicate 2": 55250, "firefly Hh reporter signal, replicate 3": 43297, "Renilla reference signal, replicate 1": 4192, "Renilla reference signal, replicate 2": 3008}
{"predicted target": "Spt5", "DRSC id": "DRSC07556", "firefly Hh reporter signal, replicate 1": 81222, "firefly Hh reporter signal, replicate 2": 42003, "Renilla reference signal, replicate 1": 1648, "Renilla reference signal, replicate 2": 2960}
{"predicted target": "Tif-IA", "DRSC id": "DRSC03717", "firefly Hh reporter signal, replicate 1": "77067 (active)", "firefly Hh reporter signal, replicate 2": 46375, "Renilla reference signal, replicate 1": 4313, "Renilla reference signal, replicate 2": 2946}
{"predicted target": "Tif-IA", "DRSC id": "DRSC03726", "firefly Hh reporter signal, replicate 1": "64488 (active)", "firefly Hh reporter signal, replicate 2": 32490, "Renilla reference signal, replicate 1": 2672, "Renilla reference signal, replicate 2": 4877}
{"predicted target": "Charon", "DRSC id": "DRSC00679", "firefly Hh reporter signal, replicate 1": 69241, "firefly Hh reporter signal, replicate 2": 37269, "Renilla reference signal, replicate 1": 3025, "Renilla reference signal, replicate 2": 1900}
{"predicted target": "scra", "DRSC id": "DRSC07679", "firefly Hh reporter signal, replicate 1": 66682, "firefly Hh reporter signal, replicate 2": 45808, "Renilla reference signal, replicate 1": 2823, "Renilla reference signal, replicate 2": 1640}
{"predicted target": "pxb", "DRSC id": "DRSC13110", "firefly Hh reporter signal, replicate 1": 47347, "firefly Hh reporter signal, replicate 2": 2.67e5, "Renilla reference signal, replicate 1": 9618, "Renilla reference signal, replicate 2": 5748}
{"predicted target": "pxb", "DRSC id": "DRSC14996", "firefly Hh reporter signal, replicate 1": 1.22e5, "firefly Hh reporter signal, replicate 2": 1.52e5, "Renilla reference signal, replicate 1": 2544, "Renilla reference signal, replicate 2": 4233}
{"predicted target": "pxb", "DRSC id": "DRSC14997", "firefly Hh reporter signal, replicate 1": 1.21e5, "firefly Hh reporter signal, replicate 2": 1.34e5, "Renilla reference signal, replicate 1": 3924, "Renilla reference signal, replicate 2": 3259}
{"predicted target": "CG6813", "DRSC id": "DRSC16122", "firefly Hh reporter signal, replicate 1": 68474, "firefly Hh reporter signal, replicate 2": 1.00e5, "Renilla reference signal, replicate 1": 1506, "Renilla reference signal, replicate 2": 4996}
{"predicted target": "S-Lap4", "DRSC id": "DRSC10957", "firefly Hh reporter signal, replicate 1": 53272, "firefly Hh reporter signal, replicate 2": 54634, "firefly Hh reporter signal, replicate 3": 61324, "Renilla reference signal, replicate 1": 3864, "Renilla reference signal, replicate 2": 4887}
{"predicted target": "Cyp4c3", "DRSC id": "DRSC16631", "firefly Hh reporter signal, replicate 1": 1.03e5, "firefly Hh reporter signal, replicate 2": 1.11e5, "Renilla reference signal, replicate 1": 1874, "Renilla reference signal, replicate 2": 2378}
{"predicted target": "Cpr5C", "DRSC id": "DRSC18340", "firefly Hh reporter signal, replicate 1": 1.42e5, "firefly Hh reporter signal, replicate 2": 6.72e5, "firefly Hh reporter signal, replicate 3": 3.34e5, "Renilla reference signal, replicate 1": 5309, "Renilla reference signal, replicate 2": 5234}
